Measured values from PubChem BioAssay AID2685 (National Center for Advancing Translational Sciences (NCATS), 2010).
Some of the results follow. Shown are side measurements of this screen, not its main read-out; they come without a call. Compounds called inactive in the main read-out are mostly missing here. The note in brackets gives the kind of curve behind each potency; many fits are weak.

Assay: qHTS Assay for Lipid Storage Modulators in Drosophila S3 Cells;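 as to cell number change: cells counted by Cell Tracker Red CMTPX staining in the red channel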
Details: BODIPY lipid droplet fluorescence, 18-24 h; for cell number change: measured here: cell count max response, cells fed with added oleic acid
Procedure, shortened: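 Drosophila S3 cells loaded with oleic acid (400 uM, as added) and compounds at several concentrations; lipid droplets imaged by 488-nm laser-scanning cytometry, 500–530 nm intensity and object ratio to cell channel. Percent activity normalized to 20 uM Triacsin C.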

[1] = measured here: lipid fluorescence (Fed channel) AC50, cells fed with added oleic acid
[2] = measured here: cell number channel AC50, cells fed with added oleic acid

CC(C1CC2CCC1C2)n1c(COc2ccccc2F)nnc1SCC(N)=O (stereo not given)
cell number change: -42.8%

CN(c1ccccc1)S(=O)(=O)c1ccc(NC(=O)c2ccc(-c3ccccc3)cc2)cc1
cell number change: -5.12% | AC50 [1]: 18.4 µM [falling, single point]

O=C(Nc1nnc(C2CC2)s1)c1cc2c(s1)CCCCCC2
cell number change: -16.9% | AC50 [1]: 0.0731 µM [falling, full curve, poor fit]

COc1ccc(C(=O)N2CCCC(Nc3ccc(C(C)C)cc3)C2)c(OC)n1 (stereo not given)
cell number change: 0.88% | AC50 [1]: 0.103 µM [falling, full curve, poor fit]

COC(=O)CCCC(=O)NC1CC(C)(C)Cc2c1cnn2-c1ccc(C)cc1 (stereo not given)
cell number change: -30.2% | AC50 [2]: 13 µM [falling, single point] | AC50 [1]: 29.1 µM [falling, single point]

c1ccc(-n2ncc3c(NCc4cccnc4)ncnc32)cc1
cell number change: 21.6% | AC50 [1]: 18.4 µM [rising, partial curve]

CSCCC(NC(=O)c1cc(C(C)(C)C)oc1C)C(=O)O (stereo not given)
cell number change: -22.6% | AC50 [2]: 2.06 µM [falling, full curve, poor fit] | AC50 [1]: 32.6 µM [falling, single point]

Cc1ccc(C)c(OCCCCCn2ccnc2)c1
AC50 [1]: 23.1 µM [rising, single point]

CC(C)(C)C(=O)C[n+]1ccccc1
cell number change: -15.8% | AC50 [1]: 0.013 µM [falling, partial curve]

CCOCCCn1c(=NC(C)=O)c(C(=O)OCC)cc2c(=O)n3ccccc3nc21
cell number change: 119% | AC50 [2]: 1.46 µM [rising, full curve] | AC50 [1]: 2.06 µM [rising, full curve]

O=C(O)C1CCCCC1C(=O)NCCc1ccc(F)cc1 (stereo not given)
cell number change: -9.6% | AC50 [1]: 5.8 µM [falling, partial curve]

COCCn1c(Cc2ccccc2)nnc1SCC(=O)Nc1ccccc1
cell number change: -15.5% | AC50 [2]: 6.51 µM [falling, single point]

CC(C)CNC(=S)NC1CC2CCC(C1)N2Cc1ccccc1 (stereo not given)
cell number change: -19.3%

N#Cc1c2n(c3c(=O)n(Cc4ccccc4)cnc13)CCCC2
AC50 [2]: 2.59 µM [rising, partial curve]

Nc1nc(-c2ccc3c(c2)CCC(=O)N3)cs1
cell number change: 34%

O=C(Nc1ccccc1)Nc1ncc([N+](=O)[O-])s1
cell number change: -59% | AC50 [2]: 20.6 µM [falling, single point] | AC50 [1]: 23.1 µM [falling, partial curve]

Fc1ccc(-c2nnc(CSc3nnc4ccccn34)o2)cc1
cell number change: 14.2% | AC50 [1]: 2.31 µM [rising, partial curve]

CN(CC(=O)O/N=C(\N)c1ccc([N+](=O)[O-])cc1)S(=O)(=O)c1ccc2ccccc2c1
cell number change: 0.445% | AC50 [1]: 0.13 µM [falling, full curve, poor fit]

CC(=O)/C(=C/N(C)C)C(=O)Nc1ccc(Cl)cc1Cl
cell number change: -7.69% | AC50 [1]: 20.6 µM [falling, single point]

Cc1[nH]c(-c2ccc(F)cc2)cc1C(=O)N1CCN(c2ccc(Cl)cc2)CC1
cell number change: 61.3% | AC50 [2]: 6.51 µM [rising, full curve] | AC50 [1]: 4.11 µM [rising, full curve]

C=CCn1c(=NC(=O)C2CCCCC2)sc2cc(NC(C)=O)ccc21
cell number change: 29% | AC50 [1]: 2.59 µM [rising, full curve]

Cc1ccc(NC(=O)/C=C/c2ccc([N+](=O)[O-])s2)cc1
cell number change: -18.6% | AC50 [1]: 2.59 µM [falling, partial curve]

CC1(C)OC2OC(C(=O)N/N=C/c3cc(Br)ccc3O)C3OC(C)(C)OC3C2O1 (stereo not given)
cell number change: -32.4% | AC50 [2]: 3.66 µM [falling, single point] | AC50 [1]: 6.51 µM [falling, full curve]

Cc1ccc2[nH]c(=O)c(N3CCOCC3)c(-c3ccccc3)c2c1
cell number change: -30.2% | AC50 [2]: 32.6 µM [falling, single point]

COc1cccc(NC(=O)C2CCN(S(=O)(=O)c3ccc4c(c3)NC(=O)C(C)S4)CC2)c1 (stereo not given)
cell number change: -20.1% | AC50 [1]: 6.51 µM [rising, single point]

CCOC(=O)C1=C(C)NC(C)=C(C(=O)OCC)C1C(=O)OC1CCOC1=O (stereo not given)
cell number change: 11.5%

COc1ccc(-n2c(SCC3CNC(=O)O3)nnc2-c2ccc(Cl)cc2)cc1 (stereo not given)
cell number change: -1.9%

CC(C(=O)c1ccc(Br)cc1)[n+]1cccc2ccccc21 (stereo not given)
cell number change: 45.3% | AC50 [2]: 14.6 µM [rising, partial curve, poor fit] | AC50 [1]: 3.66 µM [falling, full curve]

COC(=O)c1ccc(OCC(=O)c2ccccc2OC)cc1
AC50 [2]: 2.06 µM [rising, partial curve] | AC50 [1]: 14.6 µM [rising, partial curve]

CCN(CC)S(=O)(=O)c1ccc(OC)c(NC(=O)C(C)Oc2ccc3c(C)cc(=O)oc3c2)c1 (stereo not given)
cell number change: 17.7% | AC50 [1]: 0.326 µM [rising, full curve, poor fit]

O=C(CCNC(=O)c1ccccc1Cl)OCC(=O)c1ccccc1
cell number change: -99.4% | AC50 [2]: 23.1 µM [falling, partial curve] | AC50 [1]: 18.4 µM [falling, partial curve]

Cc1onc(-c2ccccc2)c1C(=O)NCc1ccc2c(c1)OCO2
cell number change: -25.8% | AC50 [1]: 9.2 µM [falling, partial curve]

Cc1ccc(C(C)(C)C)cc1S(=O)(=O)NC(=O)c1ccccc1
AC50 [2]: 0.058 µM [falling, full curve, poor fit] | AC50 [1]: 0.291 µM [falling, full curve]

COCCN1C(=O)c2oc3c(C)cc(C)cc3c(=O)c2C1c1cccc(O)c1 (stereo not given)
AC50 [2]: 1.03 µM [rising, partial curve] | AC50 [1]: 2.06 µM [rising, partial curve]

CCc1nnc2n1N=C(c1ccc(-c3cc(Cl)ccc3Cl)o1)CS2
AC50 [1]: 0.651 µM [falling, single point]

Cc1cccc(C(=O)OC(C)C(=O)NCC2CCCCC2)c1O (stereo not given)
cell number change: 0.0318%

CC(C)(C)C(=O)OCc1nc(-c2ccc3c(c2)OCCO3)cs1
cell number change: -21.5% | AC50 [1]: 32.6 µM [falling, single point]

OC(Cn1cnnc1)c1ccccc1 (stereo not given)
cell number change: -12.1% | AC50 [1]: 6.51 µM [rising, single point]
